In the odorant receptor screen of Mainland et al. (2015) one finds odorant receptor activation data, which are given here for 22 compounds.

Values joined by “and” are separate entries in the source; they are usually repeats but may differ in a detail not shown here. Equal values may be shown once. This is one part of the list. Single wells; the ratio to wells without odorant was worked out here, and repeats agree poorly.

For this test, the system named is OR4A15 A257V clone 1216. Briefly: odorant receptor activation (CRE luciferase / Renilla) (fold of no-odor wells); higher = more activation. Particulars: 100 µM.
Consider `COC(=O)c1ccccc1` [methyl benzoate], for which the odorant receptor activation worked out at 0.741.

`CCCCCCCOC(C)=O` [heptyl acetate] gave an odorant receptor activation of 0.928.

As to `COc1ccccc1O` [guaiacol], the odorant receptor activation is 0.945.

In the case of `CC(=O)OCC=C(C)CCC=C(C)C` [geranyl acetate], the odorant receptor activation stood at 1.06.

Compound `CC(=O)OC1CC2CCC1(C)C2(C)C` (configuration not stated) [isobornyl acetate] showed an odorant receptor activation of 1.26.

The compound `CCCCCC(C)=O` [2-heptanone] registered an odorant receptor activation of 0.947.

`CCCCCOC(C)=O` [n-amyl acetate] showed an odorant receptor activation of 0.69.

Compound `CC12C=CCC1C1CCC3CC(=O)CCC3(C)C1CC2` (configuration not stated) [androstenone] displayed an odorant receptor activation of 5.26.

With `CCCCCCOC(=O)CCC` [hexyl butyrate], the odorant receptor activation came to 0.983.

As to `CCC1(O)C2(C)CCC(C2)C1(C)C` (configuration not stated) [2-ethylfenchol], the odorant receptor activation was 0.686.

For `C=C(C)C1CC=CCC1` (configuration not stated) [r-limonene], the odorant receptor activation is 1.11 and 0.541.

The compound `CC1COCc2cc3c(cc21)C(C)(C)C(C)C3(C)C` (configuration not stated) [galaxolide] returned an odorant receptor activation of 0.874.

For `CCCCCCC=O` [heptaldehyde], the odorant receptor activation is 0.425 and 1.12.

In turn, `CC(C)CC(=O)O` [isovaleric acid] registered an odorant receptor activation of 1.33.

On to `CC12C=CCC1C1CCC3=CC(=O)CCC3(C)C1CC2` (configuration not stated) [androstadienone], for which the odorant receptor activation was 0.942.

For `CC(C)(C)c1ccc(CCC=O)cc1` [bourgeonal], the odorant receptor activation worked out at 0.715.

Take `O=C1CCCCCCCCCCCCCCO1` [pentadecalactone]: the odorant receptor activation amounted to 0.969.

For the compound `CC1=NC(C)SC1C` (configuration not stated), the odorant receptor activation was found to be 1.01.

The compound `CCCCCC(=O)O` [caproic acid] gave an odorant receptor activation of 0.952.

As to `CCCCCCCCCCC=O` [undecanal], the odorant receptor activation came to 0.954.

`O=C1CCCCC1` [Cyclohexanone] gave an odorant receptor activation of 0.831.

In the case of `C=CCc1ccc(O)c(OC)c1` [eugenol], the odorant receptor activation is 2.21 and 1.7.
